PubChem BioAssay AID1259405 | NCATS – 2018
This is one part, drawn at random, of about 50,000 deposited reagents. Of all reagents, about 4,000 (8%) were called active. 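Mouse siRNA library applied to hamster cells; one well for each siRNA.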 Reagents against one gene are numbered here.

Screen: 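Mouse-designed siRNAs used to find CHO productivity engineering targets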 (primary screen)
Cell system: Chinese hamster CHO-K1 ovary cells with stable secreted eGFP expression
Reagents: single siRNA against mouse genes, 0.8 pmol siRNA per well (2 µl of 400 nM stock)
Time to read-out: 3 days
Detection: 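Percent of the per-plate non-targeting control median for intracellular GFP per well by laser scanning cytometry and for cell viability by ATP luminescence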
Scale: GFP, % of control: higher = more GFP per well, higher productivity; viability (ATP), % of control: higher = more viable cells (more ATP)
Rule for the call: 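Called active when intracellular GFP, relative to negative control, is at or above 120%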

no.	gene symbol	reagent	GFP, % of control	viability (ATP), % of control	activity call
1	Gpr18 (GeneID 110168)	1	140	57	active
2	Gpr18 (GeneID 110168)	2	84.7	59.7	inactive
3	Gpr18 (GeneID 110168)	3	98.9	81.7	inactive
4	Vmn1r41 (GeneID 113857)	1	68.3	34	inactive
5	Vmn1r41 (GeneID 113857)	2	83.5	72	inactive
6	Vmn1r41 (GeneID 113857)	3	86.5	90.4	inactive
7	Skap2 (GeneID 54353)	1	52.1	80.4	inactive
8	Skap2 (GeneID 54353)	2	45.8	37.4	inactive
9	Skap2 (GeneID 54353)	3	66.2	85.2	inactive
10	Cntln (GeneID 338349)	1	94	84.3	inactive
11	Cntln (GeneID 338349)	2	111	70.5	inactive
12	Cntln (GeneID 338349)	3	120	82.4	active

Already shown: an excerpt of the list.
no.	gene symbol	reagent	GFP, % of control	viability (ATP), % of control	activity call
8	Skap2 (GeneID 54353)	2	45.8	37.4	inactive
9	Skap2 (GeneID 54353)	3	66.2	85.2	inactive
10	Cntln (GeneID 338349)	1	94	84.3	inactive
11	Cntln (GeneID 338349)	2	111	70.5	inactive

Next entries follow.
no.	gene symbol	reagent	GFP, % of control	viability (ATP), % of control	activity call
13	Tubgcp5 (GeneID 233276)	1	38.1	50.7	inactive
14	Tubgcp5 (GeneID 233276)	2	73.5	64.1	inactive
15	Tubgcp5 (GeneID 233276)	3	55.8	60.7	inactive
16	Mir9-2hg (GeneID 320203)	1	43.8	51.9	inactive
17	Mir9-2hg (GeneID 320203)	2	54.3	81.4	inactive
18	Mir9-2hg (GeneID 320203)	3	114	116	inactive
19	Sh3bgr (GeneID 50795)	1	43	43.4	inactive
20	Sh3bgr (GeneID 50795)	2	63.2	76.2	inactive
21	Sh3bgr (GeneID 50795)	3	68	90.8	inactive
22	Knop1 (GeneID 66356)	1	75.4	38.3	inactive
23	Knop1 (GeneID 66356)	2	85.7	75.8	inactive
24	Knop1 (GeneID 66356)	3	78.9	65.6	inactive
25	Gpt2 (GeneID 108682)	1	61.2	45.6	inactive
26	Gpt2 (GeneID 108682)	2	89	125	inactive
27	Gpt2 (GeneID 108682)	3	70.5	101	inactive
28	Klhl10 (GeneID 66720)	1	80.3	46.2	inactive
29	Klhl10 (GeneID 66720)	2	77.8	81.8	inactive
30	Stt3b (GeneID 68292)	1	89.2	76.3	inactive
31	Stt3b (GeneID 68292)	2	30.9	55.2	inactive
32	Stt3b (GeneID 68292)	3	77.2	82.5	inactive
33	Ephb6 (GeneID 13848)	1	54.4	59.6	inactive
34	Pacsin1 (GeneID 23969)	1	88.2	71.8	inactive
35	Pacsin1 (GeneID 23969)	2	63	49.2	inactive
